Reference: patent US20080279844A1
Numbering of substitutions follows the chain as printed. Numbers in names are those of the source. Results are given in words; binding and its absence hold for the method and conditions named. For some assays here: In cells and extracts the contact can be indirect. Some results given as binding are weak or reduced against the parent protein; the word gives no strength.

Chains of the proteins cited; added tags and fusions are not shown. Residues count along the entry.
UniProt P05556: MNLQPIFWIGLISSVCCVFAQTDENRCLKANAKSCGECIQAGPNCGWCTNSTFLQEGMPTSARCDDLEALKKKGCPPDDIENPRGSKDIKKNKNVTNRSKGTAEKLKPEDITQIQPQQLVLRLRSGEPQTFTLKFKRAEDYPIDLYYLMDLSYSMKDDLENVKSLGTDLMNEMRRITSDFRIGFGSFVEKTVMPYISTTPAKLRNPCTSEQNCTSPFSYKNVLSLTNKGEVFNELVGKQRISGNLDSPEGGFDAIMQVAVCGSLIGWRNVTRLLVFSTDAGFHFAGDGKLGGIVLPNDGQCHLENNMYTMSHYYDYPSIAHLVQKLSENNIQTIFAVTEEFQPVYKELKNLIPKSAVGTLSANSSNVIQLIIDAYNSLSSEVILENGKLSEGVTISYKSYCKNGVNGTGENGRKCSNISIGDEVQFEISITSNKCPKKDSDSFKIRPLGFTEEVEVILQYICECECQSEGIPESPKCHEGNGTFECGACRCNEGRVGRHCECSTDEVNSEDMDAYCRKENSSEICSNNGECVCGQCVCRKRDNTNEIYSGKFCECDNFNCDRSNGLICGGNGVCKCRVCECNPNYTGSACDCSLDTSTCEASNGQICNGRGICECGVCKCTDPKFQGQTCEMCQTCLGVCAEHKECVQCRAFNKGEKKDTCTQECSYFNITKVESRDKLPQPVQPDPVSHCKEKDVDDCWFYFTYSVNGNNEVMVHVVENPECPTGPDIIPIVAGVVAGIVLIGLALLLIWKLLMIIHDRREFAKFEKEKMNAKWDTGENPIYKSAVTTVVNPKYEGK
UniProt P16144, residues 28-1822: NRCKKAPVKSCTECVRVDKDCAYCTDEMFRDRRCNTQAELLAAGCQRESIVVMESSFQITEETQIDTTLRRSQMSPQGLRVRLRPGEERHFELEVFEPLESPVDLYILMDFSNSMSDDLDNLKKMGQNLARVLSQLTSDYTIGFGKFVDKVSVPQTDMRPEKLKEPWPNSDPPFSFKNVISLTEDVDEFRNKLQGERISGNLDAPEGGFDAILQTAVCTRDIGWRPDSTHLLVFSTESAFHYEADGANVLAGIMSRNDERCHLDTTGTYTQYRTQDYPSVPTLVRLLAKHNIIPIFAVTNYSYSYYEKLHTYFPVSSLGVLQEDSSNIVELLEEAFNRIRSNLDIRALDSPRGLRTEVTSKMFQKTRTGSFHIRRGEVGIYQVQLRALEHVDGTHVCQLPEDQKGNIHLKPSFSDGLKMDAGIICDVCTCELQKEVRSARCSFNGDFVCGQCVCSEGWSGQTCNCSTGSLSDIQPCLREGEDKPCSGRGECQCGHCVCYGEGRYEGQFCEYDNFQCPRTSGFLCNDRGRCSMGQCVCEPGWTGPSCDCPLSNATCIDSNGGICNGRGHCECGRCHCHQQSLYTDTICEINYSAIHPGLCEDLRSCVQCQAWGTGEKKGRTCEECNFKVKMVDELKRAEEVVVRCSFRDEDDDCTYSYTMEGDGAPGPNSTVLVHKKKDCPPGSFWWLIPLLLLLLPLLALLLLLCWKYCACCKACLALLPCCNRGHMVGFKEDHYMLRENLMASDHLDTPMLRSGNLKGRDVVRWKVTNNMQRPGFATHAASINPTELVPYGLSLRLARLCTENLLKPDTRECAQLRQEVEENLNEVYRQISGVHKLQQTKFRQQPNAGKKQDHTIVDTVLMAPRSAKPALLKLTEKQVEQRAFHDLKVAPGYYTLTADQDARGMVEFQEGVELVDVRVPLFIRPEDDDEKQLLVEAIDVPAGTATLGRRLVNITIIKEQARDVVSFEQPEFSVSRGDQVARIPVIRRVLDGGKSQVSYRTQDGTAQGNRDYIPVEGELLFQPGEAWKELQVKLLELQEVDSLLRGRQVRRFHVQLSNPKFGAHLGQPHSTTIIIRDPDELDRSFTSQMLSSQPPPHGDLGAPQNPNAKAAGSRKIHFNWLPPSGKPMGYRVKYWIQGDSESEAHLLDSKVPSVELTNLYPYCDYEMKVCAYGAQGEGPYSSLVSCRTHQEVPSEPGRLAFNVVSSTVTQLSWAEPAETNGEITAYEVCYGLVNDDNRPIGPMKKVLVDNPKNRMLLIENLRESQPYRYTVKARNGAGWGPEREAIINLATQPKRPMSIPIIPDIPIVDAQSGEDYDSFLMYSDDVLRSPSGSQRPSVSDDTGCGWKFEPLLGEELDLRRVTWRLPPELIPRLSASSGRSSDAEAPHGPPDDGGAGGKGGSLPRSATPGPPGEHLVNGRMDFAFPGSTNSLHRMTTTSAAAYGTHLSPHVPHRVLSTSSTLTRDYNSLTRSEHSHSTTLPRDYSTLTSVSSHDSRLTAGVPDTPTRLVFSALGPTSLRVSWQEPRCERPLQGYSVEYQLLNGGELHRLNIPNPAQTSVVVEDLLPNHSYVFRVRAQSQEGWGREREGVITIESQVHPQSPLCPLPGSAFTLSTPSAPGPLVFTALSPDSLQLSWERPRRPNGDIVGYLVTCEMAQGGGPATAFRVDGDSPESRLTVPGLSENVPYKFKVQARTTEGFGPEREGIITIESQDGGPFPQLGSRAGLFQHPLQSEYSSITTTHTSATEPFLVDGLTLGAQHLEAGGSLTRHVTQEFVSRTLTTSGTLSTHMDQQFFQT
UniProt Q04206: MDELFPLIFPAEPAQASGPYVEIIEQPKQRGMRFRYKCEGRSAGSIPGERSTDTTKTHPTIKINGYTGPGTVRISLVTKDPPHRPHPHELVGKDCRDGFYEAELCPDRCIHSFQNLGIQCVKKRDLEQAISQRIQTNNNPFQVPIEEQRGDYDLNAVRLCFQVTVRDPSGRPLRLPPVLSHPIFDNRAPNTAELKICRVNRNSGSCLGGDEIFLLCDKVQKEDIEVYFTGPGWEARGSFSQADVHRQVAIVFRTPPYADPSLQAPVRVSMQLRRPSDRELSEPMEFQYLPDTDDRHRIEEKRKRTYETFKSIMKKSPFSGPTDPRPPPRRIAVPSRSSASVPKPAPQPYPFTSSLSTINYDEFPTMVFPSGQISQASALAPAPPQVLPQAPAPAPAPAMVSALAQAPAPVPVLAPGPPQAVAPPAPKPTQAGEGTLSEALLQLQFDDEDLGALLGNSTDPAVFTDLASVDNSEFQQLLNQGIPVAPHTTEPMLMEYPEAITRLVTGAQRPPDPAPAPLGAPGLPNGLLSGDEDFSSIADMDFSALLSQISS
UniProt P18084, residues 24-799: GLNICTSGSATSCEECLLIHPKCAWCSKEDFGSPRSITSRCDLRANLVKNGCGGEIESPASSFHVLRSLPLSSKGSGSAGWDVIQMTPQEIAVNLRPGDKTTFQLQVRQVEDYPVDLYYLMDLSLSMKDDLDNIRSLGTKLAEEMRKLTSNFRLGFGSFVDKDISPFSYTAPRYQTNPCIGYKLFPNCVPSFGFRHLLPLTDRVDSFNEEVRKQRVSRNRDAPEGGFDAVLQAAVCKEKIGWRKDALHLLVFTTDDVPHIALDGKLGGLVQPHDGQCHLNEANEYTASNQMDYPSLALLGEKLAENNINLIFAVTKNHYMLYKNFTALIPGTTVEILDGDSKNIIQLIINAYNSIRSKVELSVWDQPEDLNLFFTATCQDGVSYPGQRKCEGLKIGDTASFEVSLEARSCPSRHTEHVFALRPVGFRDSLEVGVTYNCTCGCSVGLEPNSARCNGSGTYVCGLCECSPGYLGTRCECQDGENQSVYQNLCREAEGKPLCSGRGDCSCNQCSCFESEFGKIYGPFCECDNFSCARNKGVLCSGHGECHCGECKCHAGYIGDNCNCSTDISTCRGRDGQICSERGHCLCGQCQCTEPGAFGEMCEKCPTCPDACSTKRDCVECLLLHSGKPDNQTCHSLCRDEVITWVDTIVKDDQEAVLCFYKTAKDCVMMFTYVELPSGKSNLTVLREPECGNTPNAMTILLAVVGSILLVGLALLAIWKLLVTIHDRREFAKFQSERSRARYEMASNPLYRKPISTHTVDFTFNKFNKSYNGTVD
UniProt Q05397, residues 2-1052: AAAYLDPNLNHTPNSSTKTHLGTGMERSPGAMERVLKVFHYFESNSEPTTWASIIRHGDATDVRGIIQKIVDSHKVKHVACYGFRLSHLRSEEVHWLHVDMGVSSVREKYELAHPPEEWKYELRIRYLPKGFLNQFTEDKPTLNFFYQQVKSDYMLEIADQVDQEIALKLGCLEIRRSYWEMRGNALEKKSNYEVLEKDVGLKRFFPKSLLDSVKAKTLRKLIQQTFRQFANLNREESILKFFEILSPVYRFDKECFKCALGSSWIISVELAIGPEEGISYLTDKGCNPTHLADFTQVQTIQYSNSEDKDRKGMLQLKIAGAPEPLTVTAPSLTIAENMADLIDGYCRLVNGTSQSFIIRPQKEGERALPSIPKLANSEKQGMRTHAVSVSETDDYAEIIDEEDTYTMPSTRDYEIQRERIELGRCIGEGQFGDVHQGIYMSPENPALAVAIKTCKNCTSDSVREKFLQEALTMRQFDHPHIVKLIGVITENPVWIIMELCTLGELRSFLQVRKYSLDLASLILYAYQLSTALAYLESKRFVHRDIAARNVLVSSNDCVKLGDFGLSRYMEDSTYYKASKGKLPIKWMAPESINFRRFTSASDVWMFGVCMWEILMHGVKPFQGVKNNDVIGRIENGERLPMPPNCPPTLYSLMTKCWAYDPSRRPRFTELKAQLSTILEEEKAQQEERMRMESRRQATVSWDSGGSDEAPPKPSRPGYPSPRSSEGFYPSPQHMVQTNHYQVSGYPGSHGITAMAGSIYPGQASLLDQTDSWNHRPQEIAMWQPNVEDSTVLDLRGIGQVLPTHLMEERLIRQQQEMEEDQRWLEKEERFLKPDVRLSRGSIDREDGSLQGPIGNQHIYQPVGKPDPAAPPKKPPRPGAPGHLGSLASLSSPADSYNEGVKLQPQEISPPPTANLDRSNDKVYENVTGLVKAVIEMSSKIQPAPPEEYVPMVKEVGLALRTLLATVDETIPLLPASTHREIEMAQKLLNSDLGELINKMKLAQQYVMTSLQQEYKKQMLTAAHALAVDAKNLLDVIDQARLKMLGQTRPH

Experiments:
integrin β1 (human) [1] = molecular target: integrin β1 (human) (UniProt P05556); experiment: co-immunoprecipitation and confocal microscopy (figure legend)
integrin β1 (human) [2] = molecular target: integrin β1 (human) (UniProt P05556); experiment: co-immunoprecipitation with anti-β1 integrin antibody from MDA-MB231 lysates, anti-TG2 immunoblot; confocal colocalization
integrin β4 (human) [3] = molecular target: integrin β4 (human) (UniProt P16144); experiment: co-immunoprecipitation from MDA231/cl.16 lysate
[4] = molecular target: p65 subunit of NF-κB (human) (UniProt Q04206); experiment: co-immunoprecipitation with anti-TG2 antibody; confocal colocalization of TG2 with p65
integrin β5 (human) [5] = molecular target: integrin β5 (human) (UniProt P18084); experiment: co-immunoprecipitation with anti-β5 integrin antibody from MDA-MB231 lysates, anti-TG2 immunoblot; confocal colocalization
[6] = molecular target: p65 subunit of NF-κB (human) (UniProt Q04206); experiment: confocal microscopy (figure legend)
integrin β1 (human) [7] = molecular target: integrin β1 (human) (UniProt P05556); experiment: co-immunoprecipitation (discussion of Example 1)
integrin β5 (human) [8] = molecular target: integrin β5 (human) (UniProt P18084); experiment: co-immunoprecipitation (discussion of Example 1)
integrin β4 (human) [9] = molecular target: integrin β4 (human) (UniProt P16144); experiment: co-immunoprecipitation (discussion of Example 1)
[10] = molecular target: p65 subunit of NF-κB (human) (UniProt Q04206); experiment: confocal microscopy of Panc28 cells (discussion of Example 4)
integrin β5 (human) [11] = molecular target: integrin β5 (human) (UniProt P18084); experiment: co-immunoprecipitation (figure legend)
[12] = molecular target: focal adhesion kinase (FAK) (human) (UniProt Q05397); experiment: adenoviral expression in BxPC-3 cells; Western blot and confocal microscopy
[13] = molecular target: p65 subunit of NF-κB (human), Q04206; experiment: co-immunoprecipitation from Panc28 cytosolic extracts (figure legend); details: remark: other sources report otherwise
[14] = molecular target: p65 subunit of NF-κB (human), Q04206; experiment: co-immunoprecipitation with anti-IκBα antibody from Panc28 cytoplasmic extracts; details: remark: other sources report otherwise

Measured: binding

B1: Tissue transglutaminase (TG2, EC 2.3.2.13) (enzyme, human, UniProt P21980 2-687, looked up)
chain: AEELVLERCDLELETNGRDHHTADLCREKLVVRRGQPFWLTLHFEGRNYEASVDSLTFSVVTGPAPSQEAGTKARFPLRDAVEEGDWTATVVDQQDCTLSLQLTTPANAPIGLYRLSLEASTGYQGSSFVLGHFILLFNAWCPADAVYLDSEEERQEYVLTQQGFIYQGSAKFIKNIPWNFGQFEDGILDICLILLDVNPKFLKNAGRDCSRRSSPVYVGRVVSGMVNCNDDQGVLLGRWDNNYGDGVSPMSWIGSVDILRRWKNHGCQRVKYGQCWVFAAVACTVLRCLGIPTRVVTNYNSAHDQNSNLLIEYFRNEFGEIQGDKSEMIWNFHCWVESWMTRPDLQPGYEGWQALDPTPQEKSEGTYCCGPVPVRAIKEGDLSTKYDAPFVFAEVNADVVDWIQQDDGSVHKSINRSLIVGLKISTKSVGRDEREDITHTYKYPEGSSEEREAFTRANHLNKLAEKEETGMAMRIRVGQSMNMGSDFDVFAHITNNTAEEYVCRLLLCARTVSYNGILGPECGTKYLLNLNLEPFSEKSVPLCILYEKYRDCLTESNLIKVRALLVEPVINSYLLAERDLYLENPEIKIRILGEPKQKRKLVAEVSLQNPLPVALEGCTFTVEGAGLTEEQKTVEIPDPVEAGEEVKVRMDLLPLHMGLHKLVVNFESDKLKAVKGFRNVIIGPA
not listed: [12] | [13] | [14]
binds: all other assays above

B2: C277S mutant TG2 (TG2m) (enzyme, UniProt P21980 2-687, looked up)
chain: B1 chain with C276S
binds: [12]

B3: IκBα, P25963 1-317 (protein, human, UniProt P25963 1-317, looked up)
chain: MFQAAERPQEWAMEGPRDGLKKERLLDDRHDSGLDSMKDEEYEQMVKELQEIRLEPQEVPRGSEPWKQQLTEDGDSFLHLAIIHEEKALTMEVIRQVKGDLAFLNFQNNLQQTPLHLAVITNQPEIAEALLGAGCDPELRDFRGNTPLHLACEQGCLASVGVLTQSCTTPHLHSILKATNYNGHTCLHLASIHGYLGIVELLVSLGADVNAQEPCNGRTALHLAVDLQNPDLVSLLLKCGADVNRVTYQGYSPYQLTWGRPSTRIQQQLGQLTLENLQMLPESEDEESYDTESEFTEFTEDELPYDDCVFGGQRLTL
binds: [13] | [14]
